Reference: patent US20140030218A1, “Treatment And Screening” (IMPERIAL INNOVATIONS LIMITED, published 2014)
These are yes or no findings as the source states them, for the method shown. For part of these data: Binding seen in cells or lysates may run through a third protein. Some entries that bind do so weakly or less than the wild type.

Protein sequences, listed by entry. Tags and fused reporters are not part of them. Lines headed by an entry give the natural chain unless they say otherwise; changes in a name come on top.
UniProt Q04206: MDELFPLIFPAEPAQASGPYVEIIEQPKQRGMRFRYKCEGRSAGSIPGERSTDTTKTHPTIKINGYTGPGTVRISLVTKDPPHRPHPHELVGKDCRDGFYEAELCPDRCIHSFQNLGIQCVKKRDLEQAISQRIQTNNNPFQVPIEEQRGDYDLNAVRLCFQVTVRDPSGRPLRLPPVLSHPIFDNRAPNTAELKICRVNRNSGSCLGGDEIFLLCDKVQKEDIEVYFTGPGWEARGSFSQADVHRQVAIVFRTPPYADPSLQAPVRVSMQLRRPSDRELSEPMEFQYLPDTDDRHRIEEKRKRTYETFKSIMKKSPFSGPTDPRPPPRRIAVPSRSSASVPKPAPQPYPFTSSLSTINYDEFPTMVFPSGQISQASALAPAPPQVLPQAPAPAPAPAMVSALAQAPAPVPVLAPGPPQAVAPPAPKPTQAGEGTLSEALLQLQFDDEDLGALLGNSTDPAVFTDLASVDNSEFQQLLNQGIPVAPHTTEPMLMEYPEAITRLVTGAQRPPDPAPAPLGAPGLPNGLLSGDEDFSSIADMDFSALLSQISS

Assays:
[1] = molecular target: One-Strep-IRF5 fusion protein (human) (UniProt Q13568); experiment: One-Strep affinity purification of full-length IRF5 with flag-tagged RelA truncated mutants, Western blot (legend of FIG. 33)
endogenous IRF5 (human) = endogenous IRF5 (human) (UniProt Q13568); experiment: anti-FLAG sepharose immunoprecipitation from HEK-293 cells without cross-linking, immunoblot
[2] = molecular target: endogenous NF-kB RelA (human) (UniProt Q04206); experiment: immunoprecipitation of endogenous IRF5 from MDDCs (LPS 0 or 1 h) with anti-IRF5 antibodies, immunoblot for RelA
[3] = molecular target: endogenous NF-kB RelA (human) (UniProt Q04206); experiment: immunoprecipitation with anti-IRF5 antibodies from DNase I-digested nuclei of HEK-293-TLR4-CD14/Md2 cells (LPS 0, 1, 4, 8 h), immunoblot for RelA
[4] = molecular target: endogenous NF-kB RelA (human) (UniProt Q04206); experiment: summary of the pull-down and co-immunoprecipitation experiments
[5] = molecular target: endogenous NF-kB RelA (human) (UniProt Q04206); experiment: Strep-Tactin pull-down from formaldehyde-cross-linked HEK-293 cells, immunoblot
[6] = molecular target: endogenous NF-kB RelA (human) (UniProt Q04206); experiment: pull-down and co-immunoprecipitation, immunoblot (title of the legend of FIG. 24)
TRIM28 (human) [7] = molecular target: T1, TRIM28 (human) (UniProt Q13263); experiment: One-Strep affinity purification, Western blot (legend of FIG. 36)
T1 sequence: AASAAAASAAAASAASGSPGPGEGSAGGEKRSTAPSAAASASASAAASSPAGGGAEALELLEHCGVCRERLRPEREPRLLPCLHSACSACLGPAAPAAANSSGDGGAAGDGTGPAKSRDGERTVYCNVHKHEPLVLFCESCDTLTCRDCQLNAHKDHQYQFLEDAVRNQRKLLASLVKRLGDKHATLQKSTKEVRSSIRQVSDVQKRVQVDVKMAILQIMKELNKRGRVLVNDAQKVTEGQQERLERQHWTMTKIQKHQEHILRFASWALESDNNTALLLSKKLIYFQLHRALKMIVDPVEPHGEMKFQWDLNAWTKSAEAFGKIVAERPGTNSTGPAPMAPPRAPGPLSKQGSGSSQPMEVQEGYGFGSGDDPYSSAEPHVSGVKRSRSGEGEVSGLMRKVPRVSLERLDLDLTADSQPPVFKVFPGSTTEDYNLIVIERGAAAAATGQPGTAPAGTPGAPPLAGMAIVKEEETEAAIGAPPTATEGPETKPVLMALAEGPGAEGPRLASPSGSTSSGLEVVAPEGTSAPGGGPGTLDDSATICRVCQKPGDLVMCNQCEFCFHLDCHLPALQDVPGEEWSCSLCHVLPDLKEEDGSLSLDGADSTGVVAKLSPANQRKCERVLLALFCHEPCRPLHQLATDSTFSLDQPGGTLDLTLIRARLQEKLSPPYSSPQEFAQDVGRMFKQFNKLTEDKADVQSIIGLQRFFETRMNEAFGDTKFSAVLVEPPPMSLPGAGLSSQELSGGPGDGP

TRIM28 (human) [8] = molecular target: T1, TRIM28 (human); experiment: One-Strep affinity purification without cross-linking, Western blot with a TRIM28 specific antibody

## Rel A dimerisation domain (from UniProt Q04206 189-295)
[1]
  binding: binds

## human RelA containing C-terminal FLAG tag (from UniProt Q04206 1-551)
Endogenous IRF5 (human)
  binding: binds

## endogenous IRF5 (from UniProt Q13568 1-488)
[2]
  binding: binds
[3]
  binding: binds

B1: human IRF5 tagged with one-strep tag (N-terminus) and HA tag (C-terminus) (other)
chain: MNQSIPVAPTPPRRVRLKPWLVAQVNSCQYPGLQWVNGEKKLFCIPWRHATRHGPSQDGDNTIFKAWAKETGKYTEGVDEADPAKWKANLRCALNKSRDFRLIYDGPRDMPPQPYKIYEVCSNGPAPTDSQPPEDYSFGAGEEEEEEEELQRMLPSLSLTEDVKWPPTLQPPTLQPPVVLGPPAPDPSPLAPPPGNPAGFRELLSEVLEPGPLPASLPPAGEQLLPDLLISPHMLPLTDLEIKFQYRGRPPRALTISNPHGCRLFYSQLEATQEQVELFGPISLEQVRFPSPEDIPSDKQRFYTNQLLDVLDRGLILQLQGQDLYAIRLCQCKVFWSGPCASAHDSCPNPIQREVKTKLFSLEHFLNELILFQKGQTNTPPPFEIFFCFGEEWPDRKPREKKLITVQVVPVAARLLLEMFSGELSWSADSIRLQISNPDLKDRMVEQFKELHHIWQSQQRLQPVAQAPPGAGLGVGQGPWPMHPAGMQ
notes: Expressed in HEK-293-TLR4-CD14/Md2 cells and purified on Strep-Tactin after formaldehyde cross-linking; also called onestrep-IRF5-HA; IRF5 with an N-terminal one-strep tag and a C-terminal HA tag; not shown: N-terminal one-strep tag; C-terminal HA tag
[4]
  binding: binds
[5]
  binding: binds
[6]
  binding: binds

B2: One-Strep-IRF5 fusion protein (other)
chain: MNQSIPVAPTPPRRVRLKPWLVAQVNSCQYPGLQWVNGEKKLFCIPWRHATRHGPSQDGDNTIFKAWAKETGKYTEGVDEADPAKWKANLRCALNKSRDFRLIYDGPRDMPPQPYKIYEVCSNGPAPTDSQPPEDYSFGAGEEEEEEEELQRMLPSLSLTEDVKWPPTLQPPTLQPPVVLGPPAPDPSPLAPPPGNPAGFRELLSEVLEPGPLPASLPPAGEQLLPDLLISPHMLPLTDLEIKFQYRGRPPRALTISNPHGCRLFYSQLEATQEQVELFGPISLEQVRFPSPEDIPSDKQRFYTNQLLDVLDRGLILQLQGQDLYAIRLCQCKVFWSGPCASAHDSCPNPIQREVKTKLFSLEHFLNELILFQKGQTNTPPPFEIFFCFGEEWPDRKPREKKLITVQVVPVAARLLLEMFSGELSWSADSIRLQISNPDLKDRMVEQFKELHHIWQSQQRLQPVAQAPPGAGLGVGQGPWPMHPAGMQ
notes: also called full-length IRF5 (One-Strep bait); not shown: One-Strep tag
TRIM28 (human) [7]
  binding: binds
TRIM28 (human) [8]
  binding: binds
